Data on 84 sequences can be found in article PMC7862700.

Protein sequences, listed by entry. Tags and fused reporters are not part of them. Lines headed by an entry give the natural chain unless they say otherwise; changes in a name come on top.
UniProt O43186: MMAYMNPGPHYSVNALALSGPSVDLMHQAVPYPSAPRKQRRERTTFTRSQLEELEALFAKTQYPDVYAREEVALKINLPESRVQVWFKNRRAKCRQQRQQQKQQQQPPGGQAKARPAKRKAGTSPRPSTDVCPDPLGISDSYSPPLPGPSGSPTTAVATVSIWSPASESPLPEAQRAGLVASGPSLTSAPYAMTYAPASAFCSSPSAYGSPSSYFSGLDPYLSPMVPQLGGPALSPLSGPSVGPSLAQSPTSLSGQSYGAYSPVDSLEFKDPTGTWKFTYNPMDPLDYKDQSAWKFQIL

This is a selection; strong and weak results do not stand in their true shares. At the low end of the ranking the order means little.

Assay in all cases: DAPPL (digital affinity profiling via proximity ligation, sequencing)
Conditions in all cases: 10 mM Tris-HCl pH 7.5, 50 mM NaCl, 1 mM DTT, 4% glycerol, room temperature, 30 min; GST-TFs on glutathione beads, 16-mer random dsDNA library, 0.1% …; high values mean tight binding; double strand, one strand shown; scale: fold enrichment (6-mer frequency, TF over GST control)

The target in one experiment is T1, FEV (UniProt Q99581).
T1 sequence: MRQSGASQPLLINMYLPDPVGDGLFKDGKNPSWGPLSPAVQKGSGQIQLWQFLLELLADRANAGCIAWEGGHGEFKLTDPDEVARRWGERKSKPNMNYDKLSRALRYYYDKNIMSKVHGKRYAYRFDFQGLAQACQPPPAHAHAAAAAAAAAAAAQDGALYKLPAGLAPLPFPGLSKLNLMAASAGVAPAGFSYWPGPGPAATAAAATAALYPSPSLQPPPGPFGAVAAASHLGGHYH

A further experiment addresses CRX (UniProt O43186).
Another experiment concerns the target T2, ELF5 (UniProt Q9UKW6-2).
T2 sequence: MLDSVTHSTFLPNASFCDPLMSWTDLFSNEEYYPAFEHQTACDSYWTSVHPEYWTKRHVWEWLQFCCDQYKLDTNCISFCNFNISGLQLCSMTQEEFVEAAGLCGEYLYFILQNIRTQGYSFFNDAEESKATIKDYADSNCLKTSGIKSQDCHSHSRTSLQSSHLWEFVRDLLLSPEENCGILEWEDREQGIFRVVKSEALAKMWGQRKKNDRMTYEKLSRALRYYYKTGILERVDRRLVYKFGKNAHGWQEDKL

Turning to AGGCGC, the binding signal came to 0.563 with FEV, 0.493 in the experiment with CRX and 0.536 with ELF5.

In the case of TGAGAT, the figures for the binding signal with FEV, with CRX and in the experiment with ELF5 were 0.747, 0.893 and 0.631, respectively.

GGTAAG: the binding signal was found to be 0.683 with FEV, 0.823 with CRX and 0.824 with ELF5.

As to CAAGCG, the values for the binding signal with FEV, with CRX and in the experiment with ELF5 were 0.893, 0.74 and 0.801, respectively.

GACTGG: the results for the binding signal in the experiment with FEV, with CRX and with ELF5 were 0.618, 0.546 and 0.584, respectively.

Consider GCAGGG, for which the binding signal is 0.673 with FEV, 0.538 with CRX and 0.63 in the experiment with ELF5.

Regarding CGGTGG, the binding signal amounted to 0.639 in the experiment with FEV, 0.486 with CRX and 0.637 with ELF5.

Regarding CTAGTC, the binding signal in the experiment with FEV is 0.704; in the experiment with CRX, 0.787; with ELF5 it was 0.755.

As to CCAGCC, the binding signal in the experiment with FEV was found to be 0.804; in the experiment with CRX, 0.682; in the experiment with ELF5, 0.74.

In the case of CGCGGT, the binding signal worked out at 0.885 with FEV, 0.702 in the experiment with CRX and 0.863 with ELF5.

Turning to AGTGGA, the binding signal in the experiment with FEV was 0.759; in the experiment with CRX, 0.686; with ELF5, 0.791.

Consider TCAGGC, for which the results for the binding signal with FEV, in the experiment with CRX and in the experiment with ELF5 were 0.689, 0.747 and 0.711, respectively.

For the sequence GTGATC, the binding signal with FEV amounted to 0.794; with CRX, 0.872; in the experiment with ELF5 it was 0.828.

On to AGGCAT, for which the binding signal with FEV was 0.793; with CRX, 0.83; in the experiment with ELF5, 0.798.

Turning to AGACGT, the binding signal in the experiment with FEV is 0.466; in the experiment with CRX, 0.405; in the experiment with ELF5, 0.441.

As for TGGACG, the binding signal with FEV came to 0.815; in the experiment with CRX, 0.683; in the experiment with ELF5, 0.811.

As to AGGTTG, the binding signal was determined as 0.669 with FEV, 0.606 with CRX and 0.753 in the experiment with ELF5.

As to TACGTG, the binding signal amounted to 0.656 in the experiment with FEV, 0.646 with CRX and 0.69 with ELF5.

As to GTAAAG, the binding signal with FEV came out at 0.835; with CRX, 0.958; with ELF5, 0.926.

Consider GCCGTG, for which the binding signal with FEV worked out at 0.244; with CRX it was 0.209; in the experiment with ELF5, 0.238.

Consider GTGTAG, for which the binding signal in the experiment with FEV is 0.645; with CRX it was 0.495; with ELF5 it was 0.616.

In the case of GTGGAG, the values for the binding signal with FEV, in the experiment with CRX and with ELF5 were 0.37, 0.354 and 0.399, respectively.

On to GTAAGA, for which the binding signal with FEV was found to be 0.765; with CRX, 0.96; with ELF5, 0.783.

As for CGTCAG, the results for the binding signal with FEV, with CRX and with ELF5 were 0.8, 0.621 and 0.804, respectively.

Consider CGAGCC, for which the figures for the binding signal with FEV, in the experiment with CRX and with ELF5 were 0.857, 0.701 and 0.799, respectively.

Take AGTCGC: the binding signal in the experiment with FEV came to 0.509; with CRX it was 0.407; with ELF5 it was 0.511.

As to TCGGGG, the binding signal with FEV was 0.359; with CRX, 0.414; with ELF5, 0.375.

Regarding GCACAG, the binding signal in the experiment with FEV came to 0.741; in the experiment with CRX, 0.552; with ELF5, 0.731.

On to GCCGGC, for which the binding signal in the experiment with FEV stood at 0.822; with CRX, 0.616; with ELF5, 0.744.

With AGGAGA, the binding signal with FEV was 0.201; with CRX, 0.219; with ELF5, 0.211.

For the sequence GGCAGT, the binding signal was determined as 0.499 with FEV, 0.395 with CRX and 0.521 in the experiment with ELF5.

Turning to GCGCTA, the figures for the binding signal with FEV, with CRX and in the experiment with ELF5 were 0.846, 0.942 and 0.893, respectively.

Consider CCGGAG, for which the binding signal worked out at 0.562 with FEV, 0.392 with CRX and 0.508 with ELF5.

For CAACGT, the binding signal turned out to be 0.861 in the experiment with FEV, 0.661 in the experiment with CRX and 0.811 with ELF5.

AGCGGT: the figures for the binding signal with FEV, with CRX and with ELF5 were 0.66, 0.662 and 0.658, respectively.

In the case of CGAGGA, the binding signal with FEV amounted to 0.632; with CRX, 0.577; with ELF5, 0.726.

CAGACC: the binding signal with FEV was 0.888; in the experiment with CRX, 0.602; in the experiment with ELF5 it was 0.815.

Consider GGTAGG, for which the binding signal in the experiment with FEV is 0.648; with CRX it was 0.497; with ELF5, 0.636.

Turning to CATAGG, the binding signal is 0.755 in the experiment with FEV, 0.669 in the experiment with CRX and 0.721 with ELF5.

With AGGGCC, the binding signal was 0.938 with FEV, 0.787 with CRX and 0.863 in the experiment with ELF5.

For the sequence CAGTCT, the binding signal with FEV is 0.713; with CRX, 0.682; with ELF5 it was 0.687.

Regarding AGACCG, the binding signal came out at 0.696 in the experiment with FEV, 0.366 with CRX and 0.486 with ELF5.

On to GTAGGG, for which the binding signal is 0.723 in the experiment with FEV, 0.594 with CRX and 0.749 with ELF5.

With CCGGGC, the binding signal was 0.815 in the experiment with FEV, 0.566 with CRX and 0.885 in the experiment with ELF5.

In the case of GCGTAC, the binding signal worked out at 0.904 in the experiment with FEV, 0.67 in the experiment with CRX and 0.888 in the experiment with ELF5.

For the sequence GCAGGC, the binding signal with FEV is 0.674; with CRX, 0.544; with ELF5, 0.692.

Take GCCAGG: the binding signal stood at 0.428 with FEV, 0.337 with CRX and 0.425 with ELF5.

CAGTGT: the binding signal was 0.638 with FEV, 0.587 in the experiment with CRX and 0.626 with ELF5.

On to CGTAGT, for which the binding signal came out at 0.767 with FEV, 0.641 in the experiment with CRX and 0.858 with ELF5.

AGGGTA: the binding signal with FEV was 0.845; with CRX, 0.833; in the experiment with ELF5, 0.909.

Consider GCGAGT, for which the binding signal with FEV came to 0.544; with CRX, 0.42; in the experiment with ELF5, 0.502.

As to ACAGGC, the binding signal with FEV was determined as 0.677; with CRX, 0.588; with ELF5, 0.622.

Regarding CGTGAG, the binding signal with FEV amounted to 0.121; with CRX it was 0.112; with ELF5, 0.116.

In the case of TGTAGT, the values for the binding signal in the experiment with FEV, in the experiment with CRX and with ELF5 were 0.822, 0.736 and 0.917, respectively.

For the sequence TGTGAA, the binding signal with FEV is 0.809; with CRX, 0.718; with ELF5, 0.754.

With CCTAGT, the results for the binding signal in the experiment with FEV, with CRX and with ELF5 were 0.843, 0.859 and 0.99, respectively.

With TAGGCG, the binding signal stood at 0.648 in the experiment with FEV, 0.745 with CRX and 0.653 with ELF5.

For the sequence AGTTGG, the binding signal is 0.481 with FEV, 0.389 with CRX and 0.494 with ELF5.

Turning to GCCGTT, the binding signal amounted to 0.831 with FEV, 0.698 with CRX and 0.77 in the experiment with ELF5.

Regarding TGGAGG, the results for the binding signal in the experiment with FEV, with CRX and with ELF5 were 0.474, 0.471 and 0.486, respectively.

As to TTGGAG, the binding signal is 0.511 with FEV, 0.512 with CRX and 0.496 with ELF5.

In the case of AGGTGG, the values for the binding signal with FEV, with CRX and with ELF5 were 0.599, 0.53 and 0.601, respectively.

As for GACTGT, the binding signal in the experiment with FEV was determined as 0.424; in the experiment with CRX it was 0.351; with ELF5, 0.413.

Consider AGGCGA, for which the values for the binding signal in the experiment with FEV, in the experiment with CRX and with ELF5 were 0.52, 0.529 and 0.513, respectively.

GTAGGC: the values for the binding signal with FEV, with CRX and with ELF5 were 0.755, 0.629 and 0.633, respectively.

For GACAGA, the binding signal was 0.659 with FEV, 0.572 with CRX and 0.616 in the experiment with ELF5.

For the sequence AGGGTC, the binding signal with FEV was determined as 0.864; in the experiment with CRX it was 0.651; in the experiment with ELF5, 0.82.

Turning to CAGTAG, the binding signal with FEV was determined as 0.588; with CRX it was 0.589; with ELF5, 0.566.

Consider GTGACG, for which the figures for the binding signal in the experiment with FEV, with CRX and in the experiment with ELF5 were 0.71, 0.532 and 0.696, respectively.

As for CAGCCA, the figures for the binding signal with FEV, with CRX and with ELF5 were 0.837, 0.686 and 0.79, respectively.

With GGGTGA, the binding signal in the experiment with FEV amounted to 0.617; in the experiment with CRX, 0.497; in the experiment with ELF5, 0.623.

Consider CCAGTG, for which the binding signal turned out to be 0.472 in the experiment with FEV, 0.365 with CRX and 0.431 with ELF5.

CAATCG: the values for the binding signal with FEV, with CRX and with ELF5 were 0.859, 0.882 and 0.855, respectively.

Regarding GACGGC, the binding signal in the experiment with FEV amounted to 0.74; with CRX, 0.603; with ELF5, 0.707.

With CAAGTG, the binding signal with FEV came out at 0.738; with CRX, 0.628; in the experiment with ELF5 it was 0.707.

Regarding GTGAAT, the binding signal was 0.791 with FEV, 0.754 with CRX and 0.817 with ELF5.

For the sequence AGGGTG, the binding signal with FEV was determined as 0.721; in the experiment with CRX it was 0.629; with ELF5, 0.795.

Regarding GCCGTA, the binding signal is 0.827 in the experiment with FEV, 0.785 with CRX and 0.786 with ELF5.

In the case of CGCGGG, the values for the binding signal with FEV, with CRX and in the experiment with ELF5 were 0.778, 0.555 and 0.724, respectively.

Turning to GACGCA, the binding signal with FEV was 0.506; in the experiment with CRX, 0.41; with ELF5 it was 0.554.

As for CGGCAG, the binding signal was 0.815 in the experiment with FEV, 0.6 with CRX and 0.793 with ELF5.

Regarding GAGTAG, the results for the binding signal with FEV, with CRX and with ELF5 were 0.491, 0.429 and 0.46, respectively.

With GCGGCG, the binding signal is 0.697 in the experiment with FEV, 0.567 in the experiment with CRX and 0.696 in the experiment with ELF5.

For the sequence GTGAAA, the binding signal in the experiment with FEV was 0.707; with CRX it was 0.579; with ELF5, 0.726.
